Measurements published in patent US9333222B2, “Histone deacetylase inhibitors as therapeutic agents for Niemann-Pick type C disease” (University of Notre Dame du Lac, priority 2009, dated 2016).
For part of these data: For at least one compound, name, drawing or mass did not settle the structure. Some of these results come from one statement about several compounds together.

What was measured:
[1] = tested on: NPC1 human fibroblast GM18453 cells; test: Filipin microscopy assay of free cholesterol in LSO (LSO ratio); type: cell-based; conditions: 48-hour treatment
[2] = tested on: NPC1 human fibroblast GM03123 cells; test: Filipin microscopy assay of free cholesterol in lysosomal storage organelles (LSO ratio); type: cell-based; conditions: within 24 hours

Row | SMILES | correction of the NPC1 phenotype ([1]; 4 nM) | concentration at which improvement in the phenotype was caused [1] | concentration at which significant correction of the NPC1 phenotype was observed [2]
1 | Cc1[nH]c2ccccc2c1CCNCc1ccc(/C=C/C(=O)NO)cc1 [LBH-589, panobinostat] | quite effective | – | –
2 | CC(=O)Nc1ccc(C(=O)Nc2ccccc2N)cc1 [CL-994] | – | above 333 nM | above 1.11 μM
